# Source: US9399790B2, “Stable NAD/NADH derivatives” (Roche Diabetes Care, Inc., priority 2006, dated 2016)
# For at least one compound, name, drawing or mass did not settle the structure.
# Target: glucose dehydrogenase (GlucDH) (Bacillus subtilis, UniProt P12310)
# Test: Glucose dehydrogenase (GlucDH) activity assay with NAD derivative as cofactor
# Type: biochemical
# Experimental: In order to examine the role of pNAD as a cofactor for glucose dehydrogenase (GlucDH), a glucoseDH activity assay in 0.1 M Tris/0.2 M NaCl (pH 8.5) buffer was carried out. The concentration of glucose was 80 mM. pNAD and NAD concentrations of 0.05-0.5 mM were used. To this, 10 mg/ml (pNAD) or 0.002 mg/ml (NAD) [83 or 0.017 μM respectively] GlucDH was added. The assay was carried out at room temperature and the enzymatic reaction was monitored by recording absorption spectra at regular time intervals. The values shown in table 1 refer to an absorption measurement after 4 min.
# A glucose dehydrogenase activity assay for cNAD compared to NAD was carried out as described under B) for pNAD. For this purpose glucose dehydrogenase concentrations of […] and 0.002 mg/ml (NAD) [0.83 and 0.017 μM respectively] were used.
structure (smiles),measurement,setting,value
"NC(=O)c1ccc[n+]([C@@H]2O[C@H](COP(=O)([O-])OP(=O)(O)OC[C@H]3O[C@@H](n4cnc5c(N)ncnc54)[C@H](O)[C@@H]3O)[C@@H](O)[C@H]2O)c1 [NAD, nicotinamide adenine dinucleotide]",U/ml,"0.05 mM (c)NAD, assay as for pNAD, GlucDH 0.002 mg/ml (NAD), 0.1 mg/ml (cNAD)",430 U/ml
same,U/ml,"0.05 mM (p)NAD, 80 mM glucose, 0.1 M Tris/0.2 M NaCl pH 8.5, room temperature, absorption after 4 min, GlucDH 0.02 mg/ml (NAD), 10 mg/ml (pNAD)",539 U/ml
same,U/ml,"0.1 mM (c)NAD, assay as for pNAD, GlucDH 0.002 mg/ml (NAD), 0.1 mg/ml (cNAD)",556 U/ml
same,U/ml,"0.4 mM (p)NAD, 80 mM glucose, 0.1 M Tris/0.2 M NaCl pH 8.5, room temperature, absorption after 4 min, GlucDH 0.002 mg/ml (NAD), 10 mg/ml (pNAD)",1556 U/ml
